# Some of the results follow. These are further read-outs of the screen, such as a control signal, another cell line or another target. No call is given for them. Compounds called inactive in the main read-out are mostly missing here. The note in brackets gives the kind of curve behind each potency; many fits are weak.
# Experiment: Cell signaling CRE-BLA (Fsk stim)
# Conditions: CHO CRE-bla reporter (cAMP response element driving beta-lactamase), forskolin EC10, beta-lactamase ratio; measured here: 460 nm blue channel
# Procedure, shortened: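 The 460nm/530nm emission ratio after CCF4 loading defined %Activity, from which AC50 values were obtained. CRE-bla CHO cells received compound dilution series together with an EC10 level of NKH 477 for 3 hours at 37 degrees Celsius.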
row,Compound,AC50
1,COc1cccc(-c2nccc(NCc3cnc(C)cn3)n2)c1,"10 µM [rising, partial curve]"
2,Cc1ccc(OCc2nnc(SCC(=O)N3CCOCC3)n2C)cc1,"0.631 µM [rising, partial curve]"
3,O=c1cc(-c2cccc3ccccc23)[nH][nH]1,"10 µM [falling, partial curve]"
4,O=C(CSc1nnc(-c2ccco2)n1-c1ccccc1)N1CCN(C(=O)c2ccco2)CC1,"5.01 µM [falling, single point]"
5,Cc1cc(C)c(C#N)c(SCS(=O)Cc2ccccc2)n1 (stereo not drawn),"12.6 µM [rising, single point]"
6,COCCn1c(=S)[nH]c2cc(C(=O)N3CCN(Cc4ccc5c(c4)OCO5)CC3)ccc2c1=O,"7.94 µM [rising, partial curve, poor fit]"
7,CCOC(=O)C1=C(O)CSC1=Nc1cccc(Cl)c1,"10 µM [rising, partial curve]"
8,CCOC(=O)c1sc(NS(=O)(=O)c2ccc(NC(C)=O)cc2)nc1C,"25.1 µM [falling, single point]"
9,CCOC(=O)C1CCCN(C(=O)c2sc3nc(-c4ccccc4)cn3c2C)C1 (stereo not drawn),"15.8 µM [rising, single point]"
10,CCOC(=O)CSC(C)C(=O)Nc1nnc(C(C)C)s1 (stereo not drawn),"7.94 µM [rising, partial curve]"
11,CCc1ccc2[nH]c(=O)c(C(c3nnnn3CCOC)N3CCN(c4ccccc4)CC3)cc2c1 (stereo not drawn),"0.0126 µM [falling, full curve]"
12,CCc1c(C)nc(N)n2c(SCC(=O)N3CCN(c4ccccc4)CC3)nnc12,"0.00398 µM [falling, full curve, poor fit]"
13,COc1ccc(-c2noc(CSc3nc(N)c(-c4ccccc4)c(=O)[nH]3)n2)cc1,"10 µM [rising, partial curve]"
14,Nc1nc(-c2ccccc2)cc(N2CCCCC2)n1,"0.631 µM [falling, full curve]"
15,C(=C\c1ccccc1)/CSc1nnc(-c2ccccn2)n1Cc1ccco1,"0.00398 µM [falling, full curve, poor fit]"
16,CCOC(=O)c1cccc(NC(=O)C(C)N2C(=O)c3ccccc3C2=O)c1 (stereo not drawn),"15.8 µM [falling, single point]"
17,CC(C)=CCC1=C(OCC(=O)O)C(=O)c2ccccc2C1=O,"5.01 µM [rising, single point]"
18,COc1cccc(-c2cc(C(=O)N3C(C)CCCC3C)no2)c1 (stereo not drawn),"0.1 µM [falling, full curve, poor fit]"
19,CC12CC(c3ccccc3O1)N(C(=O)c1ccco1)C(=O)N2c1ccccc1 (stereo not drawn),"0.00316 µM [falling, full curve, poor fit]"
20,COc1ccccc1Nc1nc(N)nc(CSc2nccc(C)n2)n1,"10 µM [rising, partial curve]"
21,Cc1ccc(OCc2nnc(SCC(=O)Nc3ccc4c(c3)OCCO4)n2Cc2ccco2)cc1,"25.1 µM [falling, single point]"
22,Cc1cc(=O)[nH]c(N2CCN(C(c3ccccc3)c3ccccc3)CC2)n1,"3.16 µM [falling, partial curve]"
23,COc1ccc(/C(O)=C(\C#N)c2nc3ccccc3n2C)cc1OC,"0.251 µM [rising, full curve]"

row,Compound,AC50
1,CCn1c(SCC(=O)Nc2cc(C)c(Cl)cc2OC)nnc1-c1ccco1,"12.6 µM [rising, partial curve]"
2,COC(=O)c1[nH]c2c(c1C)C(=O)CC(c1cccs1)C2 (stereo not drawn),"3.16 µM [rising, full curve]"
3,O=C(O)c1cc(NCc2c(F)cccc2Cl)ccc1N1CCOCC1,"3.16 µM [rising, single point]"
4,Cc1nn(Cc2ccc(Cl)c(Cl)c2)c(C)c1NC(=O)c1cc(CC(C)C)on1,"7.94 µM [falling, partial curve]"
5,CNc1ncnc2ccc(-c3cccc(NS(C)(=O)=O)c3)cc12,"7.94 µM [rising, partial curve]"
6,COc1cc(-c2nc(N)n[nH]2)cc(OC)c1OC,"25.1 µM [rising, single point]"
7,COc1ccc(-c2nc3cnc(N4CCN(C)CC4)nc3n(CCC#N)c2=O)cc1,"10 µM [rising, partial curve]"
8,O=c1ccc(S(=O)(=O)N2CCC(Cc3ccccc3)CC2)c[nH]1,"0.02 µM [falling, full curve, poor fit]"
9,Cc1ccccc1NC(=O)c1nc[nH]c1C(=O)NCc1ccccc1,"10 µM [rising, partial curve]"
10,Cc1ccccc1N1C(=O)CC(N(O)c2ccccc2)C1=O (stereo not drawn),"15.8 µM [falling, partial curve]"
11,COc1ccc(-n2c(CNC(=O)c3cc(OC)c(OC)c(OC)c3)n[nH]c2=S)cc1,"31.6 µM [falling, single point]"
12,COc1ccc(OC)c(C(=O)CSc2nnc(Cc3cccs3)n2C)c1,"25.1 µM [rising, partial curve]"
13,CC1C(=O)C(C)C(c2ccc3c(c2)OCO3)NC1c1ccc2c(c1)OCO2 (stereo not drawn),"6.31 µM [falling, partial curve]"
14,O=C(C1COc2ccccc2O1)N1CCN(c2ccccc2F)CC1 (stereo not drawn),"0.00398 µM [falling, full curve, poor fit]"
15,COCCOC(=O)c1[nH]c2c(c1C)C(=O)CC(c1ccco1)C2 (stereo not drawn),"10 µM [rising, partial curve]"
16,CCOC(=O)N1CCC(NC(=O)c2cc(-c3ccc(F)cc3)[nH]c2C)CC1,"0.0501 µM [rising, partial curve, poor fit]"
17,COc1cccc(Nc2ncc3nc(-c4ccccc4)c(=O)n(C[C@H]4CCCO4)c3n2)c1,"12.6 µM [rising, partial curve]"
18,Nc1c2ccccc2nc2ccccc12,"12.6 µM [rising, partial curve]"
19,c1ccc(C2=Nn3c(nnc3-c3ccncc3)SC2)cc1,"3.16 µM [falling, partial curve]"
20,O=C(Nc1ccc2c(c1)OCO2)N1CCN(C/C=C/c2ccccc2)CC1,"3.98 µM [falling, partial curve]"
21,Cc1c(C(=O)OCC(=O)c2c(N)n(CC(C)C)c(=O)n(C)c2=O)oc2ccccc12,"1.58 µM [rising, full curve, poor fit]"
22,O/N=C1\CCCc2nnc3c(c21)CCCC3,"0.794 µM [rising, full curve, poor fit]"
23,Cc1ccc(CN2C3=NCCCN3c3ccccc32)cc1,"10 µM [falling, partial curve, poor fit]"

row,Compound,AC50
1,N#Cc1c(N)sc2c1CCCCCC2,"5.01 µM [rising, full curve, poor fit]"
2,COc1ccc(C2=NOC(C(=O)Nc3cc(Br)ccc3O)C2)cc1OC (stereo not drawn),"10 µM [rising, partial curve, poor fit]"
3,CN1CCC(=C2c3ccccc3Sc3ccccc32)CC1,"5.01 µM [rising, single point]"
4,CCNc1ncc2nc(-c3ccc(Cl)cc3)c(=O)n(Cc3cccs3)c2n1,"12.6 µM [rising, partial curve]"
5,COc1ccccc1CNc1ncncc1-c1cccnc1,"5.01 µM [rising, full curve, poor fit]"
6,Cc1ccc2[nH]c3c(c2c1)CCc1cn[nH]c1-3,"1 µM [falling, partial curve]"
7,Nc1nnc(-c2cc3ccccc3oc2=O)s1,"12.6 µM [rising, single point]"
8,O=C(COc1ncnc2ccccc12)NCCC1=CCCCC1,"3.98 µM [falling, single point]"
9,COc1ccc(NC(=O)CN(c2ccccc2)S(=O)(=O)N(C)C)cc1OC,"6.31 µM [rising, partial curve]"
10,COC(=O)c1c(NC(=O)c2ccco2)sc2c1C(C(=O)OC)CC2 (stereo not drawn),"10 µM [rising, partial curve]"
11,CCOC(=O)N1CCC(NC(=O)CNS(=O)(=O)c2ccc(Br)s2)CC1,"0.0631 µM [falling, full curve]"
12,COc1ccc(CNc2ncnc3ccc(-c4cccnc4)cc23)c(OC)c1,"0.631 µM [rising, full curve]"
13,CN(C)C(=O)c1ccc(-c2nc(NCc3ccccc3)c3ccccc3n2)cc1,"2.51 µM [rising, full curve]"
14,CCOC(=O)C1CCCN(c2ncnc3c2cnn3-c2ccc(Cl)cc2)C1 (stereo not drawn),"3.98 µM [rising, partial curve]"
15,CCOc1ccc(C(=O)CN2CCN(S(=O)(=O)c3ccc(F)cc3)CC2)cc1,"25.1 µM [falling, partial curve, poor fit]"
16,CNc1nc(-c2ccccc2OC)nc2ccccc12,"10 µM [rising, partial curve]"
17,O=C(O)COc1c(F)c(F)c(C(F)(F)F)c(F)c1F,"0.316 µM [rising, partial curve]"
18,O=C(Nc1ccc(-c2cn3ccsc3n2)cc1)C1COc2ccccc2O1 (stereo not drawn),"2.51 µM [rising, single point]"
19,O=C(O)[C@@H]1CCCC[C@@H]1C(=O)N1CCc2ccccc2C1CN1C(=O)c2ccccc2C1=O (stereo partly drawn),"0.02 µM [falling, full curve, poor fit]"
20,Cc1sc2c(=O)n3c(nc2c1C(=O)NCCCN1CCOCC1)CCCCC3,"10 µM [rising, partial curve]"
21,O=C(NCC1CCS(=O)(=O)C1)Oc1ccccc1 (stereo not drawn),"1.26 µM [falling, partial curve, poor fit]"
22,CCCCC(=O)N=c1sc2cc(S(C)(=O)=O)ccc2n1C,"15.8 µM [rising, partial curve]"
